{"sequences": {"note": "Sequences of proteins named here, by UniProt entry; tags and fusion partners are left off.", "UniProt O95197, whole entry": "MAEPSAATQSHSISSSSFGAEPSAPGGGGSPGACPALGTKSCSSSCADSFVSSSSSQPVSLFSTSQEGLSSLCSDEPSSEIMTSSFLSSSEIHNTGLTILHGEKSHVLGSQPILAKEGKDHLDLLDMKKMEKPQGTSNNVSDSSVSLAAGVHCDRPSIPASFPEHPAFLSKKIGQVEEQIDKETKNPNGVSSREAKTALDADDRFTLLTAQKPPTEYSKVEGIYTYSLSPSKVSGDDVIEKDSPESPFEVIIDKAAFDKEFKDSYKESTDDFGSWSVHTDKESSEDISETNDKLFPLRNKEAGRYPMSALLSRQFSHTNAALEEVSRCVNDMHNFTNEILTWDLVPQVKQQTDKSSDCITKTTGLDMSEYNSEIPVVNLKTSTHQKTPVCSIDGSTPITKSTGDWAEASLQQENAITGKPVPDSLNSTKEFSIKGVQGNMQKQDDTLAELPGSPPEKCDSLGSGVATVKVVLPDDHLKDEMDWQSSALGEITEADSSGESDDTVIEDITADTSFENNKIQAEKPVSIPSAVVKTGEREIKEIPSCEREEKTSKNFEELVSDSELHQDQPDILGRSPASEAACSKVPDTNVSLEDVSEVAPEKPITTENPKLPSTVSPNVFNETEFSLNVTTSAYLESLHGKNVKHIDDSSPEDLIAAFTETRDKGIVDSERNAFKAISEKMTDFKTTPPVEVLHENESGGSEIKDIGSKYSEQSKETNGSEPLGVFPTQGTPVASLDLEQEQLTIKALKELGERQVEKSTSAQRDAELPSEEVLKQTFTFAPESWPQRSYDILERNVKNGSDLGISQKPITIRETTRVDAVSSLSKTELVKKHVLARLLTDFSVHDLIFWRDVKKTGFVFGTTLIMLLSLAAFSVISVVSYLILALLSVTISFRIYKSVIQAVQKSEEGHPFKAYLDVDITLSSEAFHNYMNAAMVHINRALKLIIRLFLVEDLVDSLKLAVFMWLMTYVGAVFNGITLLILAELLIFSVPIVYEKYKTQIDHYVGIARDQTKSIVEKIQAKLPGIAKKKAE"}, "source": "paper doi:10.1101/2024.12.04.624804", "molecules": {"B1": {"name": "NDP52 (protein, UniProt Q13137 1-446)", "chain": "MEETIKDPPTSAVLLDHCHFSQVIFNSVEKFYIPGGDVTCHYTFTQHFIPRRKDWIGIFRVGWKTTREYYTFMWVTLPIDLNNKSAKQQEVQFKAYYLPKDDEYYQFCYVDEDGVVRGASIPFQFRPENEEDILVVTTQGEVEEIEQHNKELCKENQELKDSCISLQKQNSDMQAELQKKQEELETLQSINKKLELKVKEQKDYWETELLQLKEQNQKMSSENEKMGIRVDQLQAQLSTQEKEMEKLVQGDQDKTEQLEQLKKENDHLFLSLTEQRKDQKKLEQTVEQMKQNETTAMKKQQELMDENFDLSKRLSENEIICNALQRQKERLEGENDLLKRENSRLLSYMGLDFNSLPYQVPTSDEGGARQNPGLAYGNPYSGIQESSSPSPLSIKKCPICKADDICDHTLEQQQMQPLCFNCPICDKIFPATEKQIFEDHVFCHSL"}}, "key": {"[1]": {"molecular_target": "Flag-tagged SARS-CoV-2 membrane protein M (SARS-CoV-2) (UniProt P0DTC5)", "assay": "co-IP"}, "[2]": {"molecular_target": "Flag-tagged SARS-CoV-2 membrane protein M (SARS-CoV-2) (UniProt P0DTC5)", "assay": "co-IP", "remark": "listed apart in the source"}}, "note": "Like-named read-outs stand apart in the source and are kept apart here. No constants are given. Whether binding was seen depends on the method and setting. In cells and extracts the contact can be indirect. Some entries that bind do so weakly or less than the wild type."}
{"molecule": "s-tag-fused SARS-CoV-2 envelope protein E (from UniProt P0DTC4 1-75)", "values": [{"measurement": "binding", "setting": "[1]", "value": "binds"}]}
{"molecule": "RTN3 (from UniProt O95197 1-1032)", "values": [{"measurement": "binding", "setting": "[1]", "value": "binds"}]}
{"molecule": "B1", "values": [{"measurement": "binding", "setting": "[2]", "value": "binds"}]}
